Source: patent publication US11078246B2, “Peptides binding to Bfl-1” (Dana-Farber Cancer Institute, Inc., priority 2015, dated 2021)
Changes are numbered by the printed parent chain. Not every detail of the peptide structures is certain; ends, links or a residue may be inferred. Starred links: 1 amine or outer side, 2 acyl side, 3 side chain; linkers in the order of their positions; H or OH if unused. Positions of bridges follow the written chain, without caps; N, C: chain ends. Non-standard residues stand in square brackets, D forms with d. Residues, ends and D or L forms follow the SMILES beside them. *: point of attachment. Nip(3R) = O=C([C@@H]1CCCN([*:1])C1)[*:2]; S5 = C=CCCC[C@](C)(N)C(=O)O; Acryloyl = C=CC(=O)*

By UniProt entry, the sequences of proteins in these tests, tags left out. Residues count along the entry.
UniProt Q07817, 1-212, stated change not applied: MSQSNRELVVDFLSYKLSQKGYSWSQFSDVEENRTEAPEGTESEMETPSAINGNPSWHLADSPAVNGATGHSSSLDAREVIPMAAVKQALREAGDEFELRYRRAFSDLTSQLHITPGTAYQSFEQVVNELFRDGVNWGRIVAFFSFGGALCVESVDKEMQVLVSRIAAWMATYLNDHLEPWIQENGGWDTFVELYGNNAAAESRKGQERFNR
UniProt Q16548, 1-153 C4S/C19S: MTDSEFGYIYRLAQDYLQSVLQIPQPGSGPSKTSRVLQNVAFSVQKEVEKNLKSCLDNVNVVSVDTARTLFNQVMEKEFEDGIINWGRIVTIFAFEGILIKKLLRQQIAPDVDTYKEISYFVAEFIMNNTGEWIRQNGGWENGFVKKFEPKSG

Tests used:
BFL-1ΔC [1] = experiment: Covalent conjugation assay of warhead-bearing SAHBs; assay type: binding, human
Procedure: For warhead-bearing SAHBs, His-BFL-1ΔC C4S/C19S protein was pretreated with 10 mM DTT in 50 mM Tris pH 8.0, 100 mM NaCl for 30 min at RT (final volume, 9.5 μL), and then combined with a 10:1 molar ratio of NOXA SAHBA or BIM SAHBA peptides bearing warheads 1-8 (final volume, 10 μL) for an additional 2 h incubation at RT. Processing for gel electrophoresis and Coomassie staining was performed as above.

BCL-XLΔC = target: T1, BCL-XLΔC (Homo sapiens, UniProt Q07817); experiment: as above; assay type: binding
T1 construct: MCL-1ΔNΔC (aa 170-327) and BCL-XLΔC (aa 1-212) constructs were cloned into pGEX-4T-1; GST (N, cleaved yes); made in house; host or cells: Escherichia coli BL21(DE3)

His-BFL-1ΔC = target: T2, His-BFL-1ΔC (Homo sapiens, UniProt Q16548); experiment: Streptavidin pull-down from anti-apoptotic protein mixture; assay type: binding; conditions: 1:1:1:1 mixture, 1 μM each, biotinylated SAHB; relative to SAHB without warhead
T2 construct: cDNA encoding BFL-1ΔC (aa 1-153) was cloned into the pET19b expression vector; made in house; host or cells: Escherichia coli BL21(DE3) LOBSTR
T2 sequence (Q16548 1-153): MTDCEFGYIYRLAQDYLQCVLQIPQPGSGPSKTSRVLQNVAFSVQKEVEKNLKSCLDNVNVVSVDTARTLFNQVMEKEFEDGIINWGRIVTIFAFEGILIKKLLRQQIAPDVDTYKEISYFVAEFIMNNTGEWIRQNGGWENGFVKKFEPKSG
Procedure: (§1) Streptavidin Pull-down: Recombinant His-BFL-1ΔC, BCL-XLΔC (tagless) and GST-MCL-1ΔNΔC (1 μM each) were combined and reduced with 3 mM DTT in PBS for 30 min at RT, and then incubated with 1 μM biotinylated SAHBA, SAHBA-3 or vehicle for 4 h at RT. The mixtures were then combined with PBS-washed high-capacity SA agarose (Thermo Fisher Pierce) and incubated with rotation for 2 h at RT. The beads were centrifuged at 3000 rpm, washed twice with NP-40 lysis buffer (1% NP40, 50 mM Tris pH 8.0, 100 mM NaCl, 2.5 mM MgCl2), once with PBS, and then bound protein eluted by boiling in 10% SDS containing 10 mg/mL biotin. Inputs (10%) and eluates were electrophoresed on a 12% Bis-Tris gel and then subjected to silver stain and imaging.

BFL-1ΔC [2] = target: T3, BFL-1ΔC (Homo sapiens, UniProt Q16548); experiment: Liposomal release assay with SAHBA-3/BFL-1ΔC conjugates; assay type: biochemical; conditions: BFL-1ΔC covalently conjugated to the peptide, 1.5 μM
T3 construct: cDNA encoding BFL-1ΔC (aa 1-153) was cloned into the pET19b expression vector; made in house; host or cells: Escherichia coli BL21(DE3) LOBSTR
T3 sequence (Q16548 1-153): T2 sequence (Q16548 1-153)
Procedure: as §1, with “Inputs (10%) and eluates were electrophoresed on a 12% Bis-Tris gel and then subjected to silver stain and imaging.” left out
Large unilamellar vesicles (LUVs) with encapsulated ANTS and DPX were generated and purified as described (Leshchiner et al., 2013; Lovell et al., 2008). The indicated combinations of BAX (400 nM), tBID (40 nM), and BFL-1ΔC or SAHBA-3/BFL-1ΔC conjugates (1.5 μM), were added to liposomes (5 μL) in 384 well plates (final volume, 30 μL), and released fluorophore was measured over 120 min using an M1000 Infinite plate reader (Tecan) with excitation and emission wavelengths of 355 nm and 520 nm, respectively. […] Percent ANTS/DPX release was calculated as [(F−F0)/(F100−F0)]×100, where F0 is baseline fluorescence at time 0, F is the fluorescence recorded for each time point, and F100 is the maximum amount of ANTS/DPX release based on liposomal treatment with 1% Triton X-100.

HA-BFL-1ΔC C4S/C19S [3] = target: T4, HA-BFL-1ΔC C4S/C19S (Homo sapiens, UniProt Q16548, C19S/C4S); experiment: Crosslinking in lysates of transfected 293T cells; assay type: binding; conditions: 293T lysate
T4 construct: cDNA encoding BFL-1ΔC (aa 1-153) was cloned into the pET19b expression vector; expressed in transfected cells; host or cells: 293T
T4 sequence (Q16548 1-153 C4S/C19S): T2 sequence (Q16548 1-153) with C4S, C19S
Procedure: 293T cells were maintained in DMEM containing 10% FBS and penicillin/streptomycin, and transfections performed with 2 μg pCMV plasmid containing HA-BFL-1ΔC C4S/C19S using X-tremeGENE 9 (Roche). For lysate experiments, cells were trypsinized 24 hours post-transfection, washed with PBS, and lysed by incubation with 1% CHAPS lysis buffer (150 mM NaCl, 50 mM Tris pH 7.4, 100 mM DTT). Protein concentration of the soluble fraction was measured using a BCA kit according to manufacturer's instructions (Thermo Scientific). […] Samples were then boiled in LDS buffer and subjected to western analysis using 1:1000 dilutions of HA (Sigma-Aldrich. #12CA5) and biotin (Abcam, #53494) antibodies. To evaluate the capacity of biotinylated SAHBs to compete with tBID for interactions with BFL-1 and MCL-1, 293T cells were transfected with either HA-BFL-1ΔC C4S/C19S or FLAG-MCL-1 in the p3XFLAG-CMV-10 vector (Sigma) as above. After 24 h, cells were trypsinized, washed with PBS, lysed in 1% CHAPS buffer, and the supernatant collected for protein concentration determination by BCA kit. […] The mixtures were then subjected to HA or FLAG (Sigma-Aldrich, F7425) immunoprecipitation, followed by western analysis using 1:1000 dilutions of HA, FLAG, biotin, and BID (Santa Cruz sc-11423) antibodies. […] Cells were harvested and lysed as above, and incubated overnight with anti-HA agarose beads (Pierce). […]

tBID/HA-BFL-1ΔC C4S/C19S = target: T5, tBID/HA-BFL-1ΔC C4S/C19S (Homo sapiens, UniProt Q16548, C19S/C4S); experiment: Competition with tBID in 293T lysates (HA immunoprecipitation); assay type: binding; conditions: 5 μM biotinylated peptide, 0.25 μM tBID, 6 h
T5 construct: cDNA encoding BFL-1ΔC (aa 1-153) was cloned into the pET19b expression vector; expressed in transfected cells; host or cells: 293T
T5 sequence (Q16548 1-153 C4S/C19S): T2 sequence (Q16548 1-153) with C4S, C19S
Procedure: Protein concentration of the soluble fraction was measured using a BCA kit according to manufacturer's instructions (Thermo Scientific). […] After 24 h, cells were trypsinized, washed with PBS, lysed in 1% CHAPS buffer, and the supernatant collected for protein concentration determination by BCA kit. […] Cells were harvested and lysed as above, and incubated overnight with anti-HA agarose beads (Pierce). The beads were washed 3 times with lysis buffer, eluted by boiling in LDS buffer, and subjected to western analysis with HA and biotin antibodies. […] Biotin capture was accomplished by incubating the mixture with high-capacity SA agarose (Thermo Scientific) for 2 h at 4° C., followed by centrifugation and washing the pelleted beads with 3×1 mL lysis buffer.

HA-BFL-1ΔC C4S/C19S [4] = target: T4, HA-BFL-1ΔC C4S/C19S; experiment: Covalent targeting of BFL-1 in treated 293T cells; assay type: cell-based
A375P cells [5] = experiment: Caspase 3/7 activation (Caspase-Glo); assay type: cell-based, human; conditions: 40 μM
A375P cells [6] = experiment: Mitochondrial cytochrome c release; assay type: cell-based, human; conditions: 40 μM
native BFL-1 = target: T6, native BFL-1 (Homo sapiens, UniProt Q16548); experiment: SA pull-down from A375P lysates, BFL-1 western; assay type: binding; conditions: A375P lysate, biotinylated peptide; compared to BIM SAHBA
T6 construct: native BFL-1 (A375P); endogenous in cells; host or cells: A375P melanoma cells (lysate or purified mitochondria)
T6 sequence (Q16548 1-175): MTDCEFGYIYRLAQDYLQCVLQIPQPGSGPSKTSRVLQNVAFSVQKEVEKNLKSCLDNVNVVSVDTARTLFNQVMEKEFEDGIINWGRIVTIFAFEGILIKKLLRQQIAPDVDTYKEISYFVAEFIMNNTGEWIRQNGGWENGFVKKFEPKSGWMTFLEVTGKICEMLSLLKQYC

[7] = target: T7, native mitochondrial BFL-1 (Homo sapiens, UniProt Q16548); experiment: Biotinylation of mitochondria purified from A375P cells; assay type: binding; conditions: biotinylated peptide 50 μM, 4 h
T7 construct: native BFL-1 (A375P); endogenous in cells; host or cells: A375P melanoma cells (lysate or purified mitochondria)
T7 sequence (Q16548 1-175): T6 sequence (Q16548 1-175)

With `C=CC(=O)N1CCC[C@@H](C(=O)N[C@H](C(=O)N[C@@H](C)C(=O)N[C@@H](CCC(N)=O)C(=O)N[C@@H](CCC(=O)O)C(=O)N[C@@H](CC(C)C)C(=O)N[C@@H](CCCNC(=N)N)C(=O)N[C@@]2(C)CCCC=CCCC[C@@](C)(C(=O)N[C@@H](Cc3ccccc3)C(=O)N[C@@H](CC(N)=O)C(=O)N[C@@H](C)C(=O)N[C@@H](Cc3ccc(O)cc3)C(=O)N[C@@H](Cc3ccc(O)cc3)C(=O)N[C@@H](C)C(=O)N[C@@H](CCCNC(=N)N)C(=O)N[C@@H](CCCNC(=N)N)C(N)=O)NC(=O)[C@H](CC(=O)O)NC(=O)CNC(=O)[C@H]([C@@H](C)CC)NC2=O)[C@@H](C)CC)C1` [BIM SAHBA-3] (Acryloyl-[Nip(3R)]IAQELR[S5]IGD[S5]FNAYYARR-NH2; staple 8-12; N-terminus and C-terminus assumed) the “reactivity with BFL-1 constructs WT, C4S/C19S, C55S, C4S/C19S/C55S” value (BFL-1ΔC [1]) was “exclusive reactivity with the WT and BFL-1 C4S/C19S constructs”, the “reactivity with BCL-XLΔC” value (BCL-XLΔC) was “did not react” and the “BFL-1ΔC engagement in SA pull-down” value (His-BFL-1ΔC) was “increased BFL-IAC targeting propensity”. For the same compound, the “BFL-1ΔC suppression of tBID-triggered BAX-mediated liposomal release” value (BFL-1ΔC [2]) was “the inhibitory function of BFL-1 was lost”, the “reactivity with other lysate proteins (biotin western)” value (HA-BFL-1ΔC C4S/C19S [3]) was “little to no non-specific reactivity” and the “competition with tBID for HA-BFL-1 binding” value (tBID/HA-BFL-1ΔC C4S/C19S) was “near total inhibition of tBID co-immunoprecipitation”. The “crosslinked BFL-1 species over time” value (HA-BFL-1ΔC C4S/C19S [4]; 20 μM, 12 hour evaluation period) was “progressive increase in the crosslinked species”, the “biotin western of lysate of treated cells” value (HA-BFL-1ΔC C4S/C19S [4]; biotinylated peptide 20 μM, 6 h) was “a single, prominent protein band” and the “caspase 3/7 activation compared to BIM SAHBA1” value (A375P cells [5]) was “higher levels”. The “cytochrome c release compared to BIM SAHBA1” value (A375P cells [6]) was “higher levels”, the “engagement of native BFL-1” value (native BFL-1) was “markedly increased engagement of BFL-1” and the “biotinylation of mitochondrial protein at molecular weight of BFL-1” value [7] was “selective biotinylation of mitochondrial protein”.
